The record followed here is paper PMC9242860.

Chains of the proteins cited; added tags and fusions are not shown. Lines headed by an entry give the natural chain unless they say otherwise; changes in a name come on top.
UniProt Q99814: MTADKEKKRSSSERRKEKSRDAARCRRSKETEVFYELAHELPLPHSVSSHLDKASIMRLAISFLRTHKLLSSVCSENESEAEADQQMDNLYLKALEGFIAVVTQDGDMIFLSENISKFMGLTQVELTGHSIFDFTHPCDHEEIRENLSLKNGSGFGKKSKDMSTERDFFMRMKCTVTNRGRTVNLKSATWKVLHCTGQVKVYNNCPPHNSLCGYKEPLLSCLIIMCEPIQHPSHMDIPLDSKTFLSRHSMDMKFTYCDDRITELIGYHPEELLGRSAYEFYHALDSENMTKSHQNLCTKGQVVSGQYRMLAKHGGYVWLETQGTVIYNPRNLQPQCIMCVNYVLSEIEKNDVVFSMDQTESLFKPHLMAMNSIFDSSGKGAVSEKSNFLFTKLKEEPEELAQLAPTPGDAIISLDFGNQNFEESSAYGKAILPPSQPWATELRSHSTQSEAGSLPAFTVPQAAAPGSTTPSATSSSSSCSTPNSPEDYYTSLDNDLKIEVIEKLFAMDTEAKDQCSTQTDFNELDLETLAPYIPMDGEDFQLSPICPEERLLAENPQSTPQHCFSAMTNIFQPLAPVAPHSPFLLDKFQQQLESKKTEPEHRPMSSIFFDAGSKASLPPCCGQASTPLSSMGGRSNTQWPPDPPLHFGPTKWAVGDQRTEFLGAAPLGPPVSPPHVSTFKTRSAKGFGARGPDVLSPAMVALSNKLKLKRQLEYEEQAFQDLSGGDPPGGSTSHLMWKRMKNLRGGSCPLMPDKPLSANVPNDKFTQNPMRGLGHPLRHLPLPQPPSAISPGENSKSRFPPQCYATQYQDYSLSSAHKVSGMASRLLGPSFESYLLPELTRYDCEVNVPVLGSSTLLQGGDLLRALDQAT
UniProt Q06710: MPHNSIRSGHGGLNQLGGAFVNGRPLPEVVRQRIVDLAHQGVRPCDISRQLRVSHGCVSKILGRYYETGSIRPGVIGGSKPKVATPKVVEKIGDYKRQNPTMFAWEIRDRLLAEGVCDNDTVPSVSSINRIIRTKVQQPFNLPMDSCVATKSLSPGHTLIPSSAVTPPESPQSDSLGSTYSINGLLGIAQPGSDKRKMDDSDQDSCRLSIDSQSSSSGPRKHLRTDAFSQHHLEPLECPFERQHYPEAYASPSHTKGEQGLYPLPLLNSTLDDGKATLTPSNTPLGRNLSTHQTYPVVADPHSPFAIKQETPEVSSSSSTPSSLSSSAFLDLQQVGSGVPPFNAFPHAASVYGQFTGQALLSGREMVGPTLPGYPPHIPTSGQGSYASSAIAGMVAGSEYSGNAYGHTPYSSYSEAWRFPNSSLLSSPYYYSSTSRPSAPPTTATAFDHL

Results are given in words; binding and its absence hold for the method and conditions named. In cells and extracts the contact can be indirect.

The experiment has as its target HIF2A reintroduced in C-M1A^HIF2A-/- cells by a doxycycline-dependent transgene (UniProt Q99814). Description: co-IP; antibodies targeting HIF2A and PAX8; C-M1A^HIF2A-/- cells with HIF2A reintroduction.

For “paired box 8 (PAX8) (from UniProt Q06710 1-450)”, the binding entry was “no binding”.
